# Results are given in words; binding and its absence hold for the method and conditions named. Binding seen in cells or lysates may run through a third protein. Here binding means that the protein was enriched with, or labelled near, the bait; the list need not be complete. For some of these results: Tags and fused reporters may be left off the sequences shown.
# Protein sequences, listed by entry. Tags and fused reporters are not part of them. Residues count along the entry.
# UniProt P0CW70: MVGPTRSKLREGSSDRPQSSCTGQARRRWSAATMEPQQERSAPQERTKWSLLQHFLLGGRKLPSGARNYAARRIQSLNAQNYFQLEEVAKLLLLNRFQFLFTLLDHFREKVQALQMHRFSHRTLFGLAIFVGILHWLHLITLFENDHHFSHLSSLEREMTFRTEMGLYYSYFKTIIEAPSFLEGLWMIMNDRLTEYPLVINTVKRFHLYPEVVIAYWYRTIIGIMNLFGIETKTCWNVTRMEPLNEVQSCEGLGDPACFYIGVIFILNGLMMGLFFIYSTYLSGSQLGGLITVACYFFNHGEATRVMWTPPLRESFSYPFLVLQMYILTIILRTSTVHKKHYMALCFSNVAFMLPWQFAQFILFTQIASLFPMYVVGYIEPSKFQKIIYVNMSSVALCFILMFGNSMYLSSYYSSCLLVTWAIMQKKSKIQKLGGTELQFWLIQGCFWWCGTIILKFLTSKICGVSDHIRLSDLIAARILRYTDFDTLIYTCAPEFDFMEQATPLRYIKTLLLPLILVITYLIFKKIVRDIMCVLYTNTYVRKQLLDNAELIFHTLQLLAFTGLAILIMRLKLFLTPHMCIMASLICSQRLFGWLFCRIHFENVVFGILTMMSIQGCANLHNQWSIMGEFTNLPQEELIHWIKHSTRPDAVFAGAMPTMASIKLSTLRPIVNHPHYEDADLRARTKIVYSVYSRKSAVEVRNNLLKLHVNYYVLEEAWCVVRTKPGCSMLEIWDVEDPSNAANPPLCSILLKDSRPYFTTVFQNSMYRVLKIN
# UniProt Q9Z2E9: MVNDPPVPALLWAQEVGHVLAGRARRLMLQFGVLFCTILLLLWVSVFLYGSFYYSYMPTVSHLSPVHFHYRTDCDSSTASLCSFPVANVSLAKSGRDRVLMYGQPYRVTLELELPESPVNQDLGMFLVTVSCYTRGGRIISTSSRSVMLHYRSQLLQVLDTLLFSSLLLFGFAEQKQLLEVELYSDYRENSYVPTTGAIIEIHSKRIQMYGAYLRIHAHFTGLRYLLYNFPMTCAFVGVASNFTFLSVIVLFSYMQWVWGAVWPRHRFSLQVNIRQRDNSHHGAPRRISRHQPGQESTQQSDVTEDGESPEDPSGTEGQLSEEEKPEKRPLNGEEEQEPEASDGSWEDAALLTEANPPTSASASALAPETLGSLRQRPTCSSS
# UniProt Q9D2F7, residues 33-1881: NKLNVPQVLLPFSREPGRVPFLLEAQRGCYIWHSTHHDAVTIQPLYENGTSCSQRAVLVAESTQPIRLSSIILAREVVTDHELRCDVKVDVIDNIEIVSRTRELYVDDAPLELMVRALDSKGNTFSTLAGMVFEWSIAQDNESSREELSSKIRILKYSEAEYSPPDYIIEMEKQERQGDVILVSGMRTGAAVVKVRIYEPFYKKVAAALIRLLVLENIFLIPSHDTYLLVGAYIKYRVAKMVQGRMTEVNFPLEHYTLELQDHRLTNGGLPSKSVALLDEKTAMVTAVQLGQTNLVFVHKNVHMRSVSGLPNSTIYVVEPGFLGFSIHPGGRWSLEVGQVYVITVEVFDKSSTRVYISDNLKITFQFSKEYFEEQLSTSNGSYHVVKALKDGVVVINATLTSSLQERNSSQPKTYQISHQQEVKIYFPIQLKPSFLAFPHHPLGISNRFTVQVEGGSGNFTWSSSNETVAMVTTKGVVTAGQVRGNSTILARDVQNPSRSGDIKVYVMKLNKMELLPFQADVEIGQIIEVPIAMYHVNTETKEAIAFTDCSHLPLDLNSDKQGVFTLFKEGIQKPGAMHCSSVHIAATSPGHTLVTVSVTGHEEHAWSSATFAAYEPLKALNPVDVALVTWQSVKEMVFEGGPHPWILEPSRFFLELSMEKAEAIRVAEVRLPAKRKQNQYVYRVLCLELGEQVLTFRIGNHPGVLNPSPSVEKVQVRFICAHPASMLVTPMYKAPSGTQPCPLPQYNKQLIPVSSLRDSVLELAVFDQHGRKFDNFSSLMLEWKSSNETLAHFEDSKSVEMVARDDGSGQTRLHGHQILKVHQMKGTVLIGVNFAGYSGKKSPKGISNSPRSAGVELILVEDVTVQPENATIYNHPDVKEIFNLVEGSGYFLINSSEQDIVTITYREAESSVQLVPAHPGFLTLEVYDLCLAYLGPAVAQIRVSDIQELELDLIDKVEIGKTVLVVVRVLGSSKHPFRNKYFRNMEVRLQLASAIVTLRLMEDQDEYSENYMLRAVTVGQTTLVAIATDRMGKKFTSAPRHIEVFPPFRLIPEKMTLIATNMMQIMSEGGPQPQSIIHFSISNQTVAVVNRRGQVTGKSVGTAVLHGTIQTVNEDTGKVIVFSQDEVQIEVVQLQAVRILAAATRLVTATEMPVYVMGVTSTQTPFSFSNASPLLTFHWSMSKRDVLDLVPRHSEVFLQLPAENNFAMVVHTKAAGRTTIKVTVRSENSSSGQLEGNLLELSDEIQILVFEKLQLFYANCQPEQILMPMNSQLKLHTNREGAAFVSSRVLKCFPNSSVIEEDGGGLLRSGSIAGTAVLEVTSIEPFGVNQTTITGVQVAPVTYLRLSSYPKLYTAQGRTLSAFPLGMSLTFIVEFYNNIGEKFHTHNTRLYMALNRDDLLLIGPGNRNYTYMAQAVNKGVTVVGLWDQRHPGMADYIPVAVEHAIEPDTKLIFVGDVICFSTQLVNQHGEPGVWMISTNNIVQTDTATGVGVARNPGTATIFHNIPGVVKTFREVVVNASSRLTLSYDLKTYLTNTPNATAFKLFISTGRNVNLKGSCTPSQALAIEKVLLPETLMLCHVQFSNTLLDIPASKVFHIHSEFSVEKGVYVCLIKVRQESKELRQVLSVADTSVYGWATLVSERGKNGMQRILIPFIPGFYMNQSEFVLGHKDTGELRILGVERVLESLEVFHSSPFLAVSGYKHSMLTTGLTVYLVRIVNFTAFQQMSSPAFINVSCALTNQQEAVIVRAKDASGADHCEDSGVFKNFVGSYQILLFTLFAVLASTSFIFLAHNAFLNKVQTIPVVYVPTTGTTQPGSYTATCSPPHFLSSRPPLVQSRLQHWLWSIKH
# T1: FAM209-FLAG (family with sequence similarity 209, FLAG knock-in) (mouse (endogenous in testis)) (UniProt A2APA5)
# T1 sequence: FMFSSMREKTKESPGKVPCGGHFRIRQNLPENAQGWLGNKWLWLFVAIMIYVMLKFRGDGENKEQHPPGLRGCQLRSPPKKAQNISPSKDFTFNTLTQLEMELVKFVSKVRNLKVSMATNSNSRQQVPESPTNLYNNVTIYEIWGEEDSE
# Tests used:
# [1] = biological target: T1, FAM209-FLAG (family with sequence similarity 209, FLAG knock-in) (mouse (endogenous in testis)); assay: affinity purification with mass spectrometry; anti-FLAG M2 resin with Fam209^Flag/Flag testis lysate, wild-type testis as control; CHAPS buffer (50 mM Tris pH 7.5, 150 mM NaCl, 1 mM DTT, 1% CHAPS), 1 h at 4°C; eluted with FLAG peptide; three independent IPs
# [2] = biological target: Probable C-mannosyltransferase DPY19L2 (mouse (endogenous in testis)) (UniProt P0CW70); assay: affinity purification with mass spectrometry; anti-DPY19L2 conjugated to Protein A/G resin; testis lysates of Fam209^FLAG (FAM209 present) or Fam209^+1/+1 (FAM209 absent) mice, CHAPS buffer, 3 h at 4°C; eluted with IgG elution buffer
Molecule,binding [1],binding [2]
nesprin-2 (SYNE2) (from UniProt Q6ZWQ0 1-6874),binds,
"calmegin (CLGN) (protein, UniProt P52194 20-611) DFMDDGVEVEDFSENSDESNIKDEPSSGTFKYKTPQPIGEVYFTETFDSGNLAGWVLSKAKKDDMDSEIAIYDGRWEIEELKENQVPGDRGLVLKSKAKHHAIAAVLEKPFIFADKPLIVQYEVNFQDGIDCGGAYIKLLADTGDLILENFYDKTSYTIMFGPDKCGEDYKLHLIFRHKHPKTGVFEEKHAKPPDVDLKEFFTDRKTHLYTLVMNPDDTFEVLIDQKVVNQGTLLDDVVPPINPPREIDDPSDKKPEEWDDRAKIPDPTAVRPEDWDENEPAQIEDSSAVKPDGWLDDEPKFIPNPKAEKPEDWSDDMDGEWEAPHIPNPACQIGCGEWKPPMIDNPKYKGIWRPPMINNPNYQGLWSPQKIPNPDYFEDDHPFLLTSFSALGLELWSMTPDIYFDNFIICSEKEVADQWATDGWELKIMVANANEPGVLRQLVIAAEERPWLWLMYLVMAGLPVALVASFCWPRKVKKKYEDTGPKKTELCKLQSKAALEQEAEEEKAPEKPEDVQEEKKPGEAEVVTVEKEVIGEPEEKSKEDRETLEGQEEVSKLSKSGSEDEMKDADESPGSGDAPLKSLRKRRVRKD",binds,
"SPACA9 (protein, UniProt Q7TPM5 1-168) MNEVKESLRSIEQKYKLFQQQQFTFIAALEHCRENAHDKIRPISSIEQVQSYMEHYCNNSTHRRILIMFMDICSELSKLCQHFEALHSGTPVTNSLLEKCKTLVSQSNDLSSLRAKYPHEVVNHLSCDEARNHYGGVVSLIPIVLDFMKEWIAHSEKLPRKVLQHGTT",,binds

# Results, then the molecule that gave them:
binding [1],binding [2],Molecule
binds,,seipin (BSCL2) (from UniProt Q9Z2E9 1-383)
binds,,nuclear pore membrane glycoprotein 210-like (NUP210L) (from UniProt Q9D2F7 33-1881)
binds,,Probable C-mannosyltransferase DPY19L2 (from UniProt P0CW70 1-773)
,binds,"E3 ubiquitin ligase TRIM69 (protein, UniProt Q80X56 1-500) MEVSSRPPSNFDPGNYVEMSDPTTTHLPSKVVIQDLTTELHCPLCNDWFRDPLMLTCGHNFCQDCIQSFWKVHSKETFCPDCKMLCQYSNCTFNLVLEKLVEKIKKLPLLKGHPQCPEHGENLKLFSKPEGKMICFQCKDARLSMGQSKDFLQISEAVRFFTEELAIYQSQLQTTLKELQSLRTIQKDAISAYKDNKIQLQQNLSLEFLKLHQFLHNKEKDILNDLRDEGKLLNEEMEVNLNQIQEQCLVAKDMLATIQARMEQQNSFDFLTDITKLIESMEKGMKTIVPRQLIAKKLSLGRFKGPIQYIIWKEMQAILSPGPSQLTLDPKTAHPNLVLSKSQTSVCHCDVKQVMPDDPERFDSSVAVLGSKGFTSGKWYWEIEVGKKTKWTIGVVRESIIRKGSCPLTPEQGFWLLRLRNQTDLKALDLPSRSLTLGDLRRVGVYLDYEGGQVSFYNATTMTHLYTFSSVFQEKLFPYLCPCLNDGGENKEPLHIVHPQ"
